Data published in the supplement of paper PMC10849652.
Some of the results follow.

Sequences of proteins named here, by UniProt entry; tags and fusion partners are left off. A change or cut given only in a name is not applied to a line headed by its entry.
UniProt Q9NP64: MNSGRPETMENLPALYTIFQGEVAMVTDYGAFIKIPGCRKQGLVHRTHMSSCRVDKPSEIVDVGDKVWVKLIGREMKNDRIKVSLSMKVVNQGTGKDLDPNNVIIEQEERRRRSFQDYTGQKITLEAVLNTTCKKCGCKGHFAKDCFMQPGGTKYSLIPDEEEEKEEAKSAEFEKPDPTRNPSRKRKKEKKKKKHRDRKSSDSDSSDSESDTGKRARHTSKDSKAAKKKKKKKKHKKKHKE
UniProt Q9NPG8: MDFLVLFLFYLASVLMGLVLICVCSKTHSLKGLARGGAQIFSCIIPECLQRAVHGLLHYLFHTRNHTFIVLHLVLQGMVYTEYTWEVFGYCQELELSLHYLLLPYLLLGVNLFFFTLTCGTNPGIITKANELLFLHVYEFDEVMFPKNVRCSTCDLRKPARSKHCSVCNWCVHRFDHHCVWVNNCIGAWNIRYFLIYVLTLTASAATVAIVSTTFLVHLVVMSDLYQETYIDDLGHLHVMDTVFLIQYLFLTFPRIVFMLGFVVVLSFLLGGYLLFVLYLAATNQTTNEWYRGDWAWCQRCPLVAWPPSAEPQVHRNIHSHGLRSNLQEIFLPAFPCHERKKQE
UniProt Q9HCC9: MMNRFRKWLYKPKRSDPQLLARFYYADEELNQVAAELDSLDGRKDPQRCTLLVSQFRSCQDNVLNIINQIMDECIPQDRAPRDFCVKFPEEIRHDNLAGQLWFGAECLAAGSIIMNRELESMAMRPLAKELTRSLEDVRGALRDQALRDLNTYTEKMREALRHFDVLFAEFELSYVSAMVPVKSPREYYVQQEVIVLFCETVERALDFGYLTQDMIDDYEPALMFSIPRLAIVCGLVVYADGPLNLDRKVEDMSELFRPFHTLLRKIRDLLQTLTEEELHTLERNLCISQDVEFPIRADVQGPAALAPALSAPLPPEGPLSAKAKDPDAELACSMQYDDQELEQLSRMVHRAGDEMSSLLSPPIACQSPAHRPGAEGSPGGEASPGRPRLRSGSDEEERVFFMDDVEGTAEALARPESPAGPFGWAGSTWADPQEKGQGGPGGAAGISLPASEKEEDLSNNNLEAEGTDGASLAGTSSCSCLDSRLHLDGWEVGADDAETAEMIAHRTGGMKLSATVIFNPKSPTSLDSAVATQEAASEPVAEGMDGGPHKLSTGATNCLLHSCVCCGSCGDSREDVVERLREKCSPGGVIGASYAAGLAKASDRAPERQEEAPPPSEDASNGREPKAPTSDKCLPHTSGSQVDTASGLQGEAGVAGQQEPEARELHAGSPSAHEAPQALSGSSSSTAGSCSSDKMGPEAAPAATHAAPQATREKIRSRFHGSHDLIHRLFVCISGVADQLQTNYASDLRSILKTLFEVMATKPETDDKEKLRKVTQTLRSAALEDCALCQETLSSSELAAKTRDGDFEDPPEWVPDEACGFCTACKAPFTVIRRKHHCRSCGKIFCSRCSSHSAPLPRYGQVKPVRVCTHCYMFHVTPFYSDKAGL
UniProt Q8N567: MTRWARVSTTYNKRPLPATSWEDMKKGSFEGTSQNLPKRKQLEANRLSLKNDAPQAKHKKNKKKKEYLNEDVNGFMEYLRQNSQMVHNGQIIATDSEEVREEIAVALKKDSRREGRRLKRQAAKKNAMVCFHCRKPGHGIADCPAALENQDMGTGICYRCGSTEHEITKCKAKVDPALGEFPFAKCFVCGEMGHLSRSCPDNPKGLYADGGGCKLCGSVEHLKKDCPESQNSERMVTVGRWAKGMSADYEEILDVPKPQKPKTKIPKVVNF
UniProt Q9BYJ9: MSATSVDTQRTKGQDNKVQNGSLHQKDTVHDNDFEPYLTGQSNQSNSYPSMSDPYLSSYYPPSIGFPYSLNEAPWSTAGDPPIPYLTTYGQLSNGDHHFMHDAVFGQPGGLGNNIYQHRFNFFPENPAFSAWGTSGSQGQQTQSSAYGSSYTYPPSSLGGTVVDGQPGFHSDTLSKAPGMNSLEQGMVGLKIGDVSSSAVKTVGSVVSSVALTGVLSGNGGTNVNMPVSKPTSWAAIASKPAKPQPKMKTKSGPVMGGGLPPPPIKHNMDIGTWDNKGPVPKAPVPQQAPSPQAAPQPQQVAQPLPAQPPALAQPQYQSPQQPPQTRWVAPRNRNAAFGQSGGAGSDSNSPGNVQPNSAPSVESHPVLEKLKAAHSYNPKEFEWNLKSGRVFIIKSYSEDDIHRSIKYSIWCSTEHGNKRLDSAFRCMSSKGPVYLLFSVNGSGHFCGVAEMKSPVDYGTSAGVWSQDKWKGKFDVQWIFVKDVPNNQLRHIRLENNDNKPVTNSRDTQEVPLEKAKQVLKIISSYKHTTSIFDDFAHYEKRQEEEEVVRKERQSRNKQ
UniProt Q8IUH4: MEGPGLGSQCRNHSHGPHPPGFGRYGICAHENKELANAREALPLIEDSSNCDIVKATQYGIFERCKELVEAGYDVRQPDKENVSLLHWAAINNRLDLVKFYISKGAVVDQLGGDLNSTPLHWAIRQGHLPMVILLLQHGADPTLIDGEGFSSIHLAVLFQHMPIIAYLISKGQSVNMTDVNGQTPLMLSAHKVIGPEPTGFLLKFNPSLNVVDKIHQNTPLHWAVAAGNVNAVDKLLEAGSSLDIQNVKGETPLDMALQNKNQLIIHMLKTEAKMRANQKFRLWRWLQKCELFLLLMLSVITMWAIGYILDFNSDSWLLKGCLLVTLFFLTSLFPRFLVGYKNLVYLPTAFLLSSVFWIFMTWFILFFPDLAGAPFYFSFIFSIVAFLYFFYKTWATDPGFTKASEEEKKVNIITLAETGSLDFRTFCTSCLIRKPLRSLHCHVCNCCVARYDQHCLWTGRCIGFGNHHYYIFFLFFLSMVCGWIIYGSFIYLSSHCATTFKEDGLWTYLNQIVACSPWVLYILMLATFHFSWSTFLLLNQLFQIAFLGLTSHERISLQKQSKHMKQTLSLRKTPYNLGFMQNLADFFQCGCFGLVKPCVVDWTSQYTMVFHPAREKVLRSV
UniProt Q9BWQ6: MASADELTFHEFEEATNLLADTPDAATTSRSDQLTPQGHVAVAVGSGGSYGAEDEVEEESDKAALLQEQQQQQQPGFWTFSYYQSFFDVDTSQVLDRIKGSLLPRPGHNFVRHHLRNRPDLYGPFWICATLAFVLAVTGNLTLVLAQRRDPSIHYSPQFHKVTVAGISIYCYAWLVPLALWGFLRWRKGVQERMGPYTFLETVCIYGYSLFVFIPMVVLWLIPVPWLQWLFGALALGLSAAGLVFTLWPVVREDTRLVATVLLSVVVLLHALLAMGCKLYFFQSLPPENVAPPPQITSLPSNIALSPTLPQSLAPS
UniProt Q8TBF4: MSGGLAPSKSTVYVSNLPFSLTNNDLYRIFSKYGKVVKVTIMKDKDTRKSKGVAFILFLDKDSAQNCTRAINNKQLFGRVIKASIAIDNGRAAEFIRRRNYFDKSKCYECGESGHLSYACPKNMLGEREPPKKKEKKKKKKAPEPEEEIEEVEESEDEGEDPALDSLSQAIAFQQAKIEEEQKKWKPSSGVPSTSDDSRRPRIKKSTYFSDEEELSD
UniProt P17010: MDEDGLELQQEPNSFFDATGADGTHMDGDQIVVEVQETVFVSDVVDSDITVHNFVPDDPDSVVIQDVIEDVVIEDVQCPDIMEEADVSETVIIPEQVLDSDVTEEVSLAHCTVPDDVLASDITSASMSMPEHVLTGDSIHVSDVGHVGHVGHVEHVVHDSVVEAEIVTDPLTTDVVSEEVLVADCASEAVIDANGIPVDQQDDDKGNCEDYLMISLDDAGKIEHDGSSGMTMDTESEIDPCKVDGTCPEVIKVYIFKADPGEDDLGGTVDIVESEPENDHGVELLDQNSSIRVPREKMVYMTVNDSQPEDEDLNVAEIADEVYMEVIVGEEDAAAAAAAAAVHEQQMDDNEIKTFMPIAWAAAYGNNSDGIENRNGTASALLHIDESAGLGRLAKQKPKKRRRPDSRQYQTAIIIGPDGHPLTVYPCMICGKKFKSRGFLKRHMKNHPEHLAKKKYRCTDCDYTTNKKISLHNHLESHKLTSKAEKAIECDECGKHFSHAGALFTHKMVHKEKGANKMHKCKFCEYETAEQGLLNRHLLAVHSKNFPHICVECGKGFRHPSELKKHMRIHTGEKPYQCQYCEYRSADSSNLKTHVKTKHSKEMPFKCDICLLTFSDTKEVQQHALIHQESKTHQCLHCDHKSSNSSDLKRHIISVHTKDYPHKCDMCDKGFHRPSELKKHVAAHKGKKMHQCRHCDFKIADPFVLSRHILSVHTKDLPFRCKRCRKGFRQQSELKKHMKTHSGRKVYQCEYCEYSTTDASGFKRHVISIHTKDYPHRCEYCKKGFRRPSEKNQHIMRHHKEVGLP
UniProt Q13105: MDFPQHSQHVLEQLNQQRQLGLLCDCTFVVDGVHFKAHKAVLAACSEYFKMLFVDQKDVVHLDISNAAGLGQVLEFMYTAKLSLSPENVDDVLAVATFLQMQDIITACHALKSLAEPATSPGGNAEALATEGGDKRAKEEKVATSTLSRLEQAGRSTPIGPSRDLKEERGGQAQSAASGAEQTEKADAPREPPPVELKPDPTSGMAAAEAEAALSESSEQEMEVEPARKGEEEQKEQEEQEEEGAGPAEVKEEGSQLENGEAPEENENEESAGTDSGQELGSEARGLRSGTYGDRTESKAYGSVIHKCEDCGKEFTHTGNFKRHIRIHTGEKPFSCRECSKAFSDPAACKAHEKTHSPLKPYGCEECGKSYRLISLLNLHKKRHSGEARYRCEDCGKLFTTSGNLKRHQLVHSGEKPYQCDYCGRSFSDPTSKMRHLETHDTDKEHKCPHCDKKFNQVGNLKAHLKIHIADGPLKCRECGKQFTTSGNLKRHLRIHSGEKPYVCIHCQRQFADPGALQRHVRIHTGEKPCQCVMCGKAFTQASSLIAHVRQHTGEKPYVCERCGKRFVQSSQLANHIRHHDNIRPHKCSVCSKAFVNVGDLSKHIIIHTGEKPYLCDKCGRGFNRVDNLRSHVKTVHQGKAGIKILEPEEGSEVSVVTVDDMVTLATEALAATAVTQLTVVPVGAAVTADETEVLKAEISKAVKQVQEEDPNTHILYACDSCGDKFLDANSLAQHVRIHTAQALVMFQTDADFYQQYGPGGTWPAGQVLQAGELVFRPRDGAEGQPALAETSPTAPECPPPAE
UniProt Q96DT7: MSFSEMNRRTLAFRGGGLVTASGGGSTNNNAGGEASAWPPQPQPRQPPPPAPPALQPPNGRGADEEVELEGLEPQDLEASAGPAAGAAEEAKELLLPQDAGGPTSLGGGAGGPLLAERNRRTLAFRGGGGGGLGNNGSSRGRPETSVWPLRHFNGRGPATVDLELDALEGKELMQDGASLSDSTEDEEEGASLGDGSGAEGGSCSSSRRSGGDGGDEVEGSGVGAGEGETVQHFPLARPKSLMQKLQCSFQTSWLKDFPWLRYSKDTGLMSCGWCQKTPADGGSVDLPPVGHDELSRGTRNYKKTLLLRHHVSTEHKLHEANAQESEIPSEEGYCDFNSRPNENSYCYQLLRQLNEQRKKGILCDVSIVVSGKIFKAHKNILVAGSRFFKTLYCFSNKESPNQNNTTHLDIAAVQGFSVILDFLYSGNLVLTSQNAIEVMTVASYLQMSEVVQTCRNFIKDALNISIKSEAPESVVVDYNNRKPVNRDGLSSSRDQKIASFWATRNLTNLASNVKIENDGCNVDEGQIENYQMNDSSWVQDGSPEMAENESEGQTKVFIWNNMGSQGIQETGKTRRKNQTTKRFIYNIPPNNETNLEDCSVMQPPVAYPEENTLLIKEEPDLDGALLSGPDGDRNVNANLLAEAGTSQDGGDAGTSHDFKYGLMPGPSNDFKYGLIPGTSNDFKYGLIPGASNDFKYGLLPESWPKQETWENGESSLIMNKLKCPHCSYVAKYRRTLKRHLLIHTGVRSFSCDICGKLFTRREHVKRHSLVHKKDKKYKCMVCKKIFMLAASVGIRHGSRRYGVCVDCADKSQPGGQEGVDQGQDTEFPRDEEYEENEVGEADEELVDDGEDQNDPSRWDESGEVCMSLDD
UniProt Q969J2: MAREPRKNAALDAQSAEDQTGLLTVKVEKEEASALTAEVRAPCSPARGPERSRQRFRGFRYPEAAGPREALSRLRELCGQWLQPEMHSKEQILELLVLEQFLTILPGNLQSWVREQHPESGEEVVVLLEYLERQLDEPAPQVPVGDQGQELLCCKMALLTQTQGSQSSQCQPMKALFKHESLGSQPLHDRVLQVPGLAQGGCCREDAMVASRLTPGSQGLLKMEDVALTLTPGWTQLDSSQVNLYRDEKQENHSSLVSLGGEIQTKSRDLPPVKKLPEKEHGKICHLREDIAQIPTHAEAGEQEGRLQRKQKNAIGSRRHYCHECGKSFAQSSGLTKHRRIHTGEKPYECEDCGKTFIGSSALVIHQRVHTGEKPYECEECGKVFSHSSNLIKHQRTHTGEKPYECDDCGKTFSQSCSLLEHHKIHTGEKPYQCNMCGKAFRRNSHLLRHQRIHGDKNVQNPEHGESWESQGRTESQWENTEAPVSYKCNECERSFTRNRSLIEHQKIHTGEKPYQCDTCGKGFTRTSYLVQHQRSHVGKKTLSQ

Experiments:
Assay in all cases: log2 fold change, soluble protein after heating vs DMSO (PISA); higher = thermal stabilisation; K562 cells, 10 uM, 30 min; active = over 0.2 and 3.5 SD of the protein, either way, in both replicates (recomputed)
sotrastaurin = compound: CN1CCN(c2nc(C3=C(c4c[nH]c5ccccc45)C(=O)NC3=O)c3ccccc3n2)CC1 [sotrastaurin]
Summary of the method: (§1)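 K562 cells at 2×10^6 cells/mL were treated with 10 μM compound for 30 min. Aliquots were heated for 3 min across 48°C-58°C, pooled, and extracted in PBS with 0.5% NP-40 at 4°C; soluble protein was the supernatant after 21,000xg for 90 min. Soluble protein was quantified by TMTpro 16plex LC-MS/MS with channel sums equalised, and reported as log2 fold change in thermal stability against DMSO controls, with values from duplicates.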

defactinib = compound: CNC(=O)c1ccc(Nc2ncc(C(F)(F)F)c(NCc3nccnc3N(C)S(C)(=O)=O)n2)cc1 [defactinib]
Summary of the method: as §1

[1] = compound: COC(=O)[C@H](CCSC)NC(=O)C1=C(C=C(C=C1)NC[C@H](CS)N)C2=CC=CC=C2
Summary of the method: as §1

filanesib = compound: CON(C)C(=O)N1N=C(c2cc(F)ccc2F)S[C@@]1(CCCN)c1ccccc1 [filanesib]
Summary of the method: as §1

alvocidib = compound: CN1CC[C@H](c2c(O)cc(O)c3c(=O)cc(-c4ccccc4Cl)oc23)[C@H](O)C1 [alvocidib]
Summary of the method: as §1

[2] = compound: COC1=CC=C(C=C1)CN2C=CC3=C2C=C(C=C3)C(=O)NO
Summary of the method: as §1

zotarolimus = compound: CO[C@H]1C[C@@H]2CC[C@@H](C)[C@@](O)(O2)C(=O)C(=O)N2CCCC[C@H]2C(=O)O[C@H]([C@H](C)C[C@@H]2CC[C@H](n3cnnn3)[C@H](OC)C2)CC(=O)[C@H](C)/C=C(\C)[C@@H](O)[C@@H](OC)C(=O)[C@H](C)C[C@H](C)/C=C/C=C/C=C/1C [zotarolimus]
Summary of the method: as §1

Tubastatin A = compound: CN1CCc2c(c3ccccc3n2Cc2ccc(C(=O)NO)cc2)C1 [Tubastatin A]
Summary of the method: as §1

[3] = compound: CNC(=O)C1=CC=CC=C1NC2=NC(=NC=C2Cl)NC3=C(C=C(C=C3)N4CCOCC4)OC
Summary of the method: as §1

rucaparib = compound: CNCc1ccc(-c2[nH]c3cc(F)cc4c3c2CCNC4=O)cc1 [rucaparib]
Summary of the method: as §1

encorafenib = compound: COC(=O)N[C@@H](C)CNc1nccc(-c2cn(C(C)C)nc2-c2cc(Cl)cc(NS(C)(=O)=O)c2F)n1 [encorafenib]
Summary of the method: as §1

idasanutlin = compound: COc1cc(C(=O)O)ccc1NC(=O)[C@@H]1N[C@@H](CC(C)(C)C)[C@](C#N)(c2ccc(Cl)cc2F)[C@H]1c1cccc(Cl)c1F [idasanutlin]
Summary of the method: as §1

alisertib = compound: COc1cc(Nc2ncc3c(n2)-c2ccc(Cl)cc2C(c2c(F)cccc2OC)=NC3)ccc1C(=O)O [alisertib]
Summary of the method: as §1

[4] = compound: COc1cc2nc(-c3cc(F)ccc3O)nc(N[C@@H]3CNC[C@H]3C(C)(C)O)c2cc1OC
Summary of the method: as §1

gefitinib = compound: COc1cc2ncnc(Nc3ccc(F)c(Cl)c3)c2cc1OCCCN1CCOCC1 [gefitinib]
Summary of the method: as §1

[5] = compound: COc1cccc2cc(-c3nc([C@H]4CC[C@H](C(=O)O)CC4)n4ncnc(N)c34)[nH]c12
Summary of the method: as §1

lapatinib = compound: CS(=O)(=O)CCNCc1ccc(-c2ccc3ncnc(Nc4ccc(OCc5cccc(F)c5)c(Cl)c4)c3c2)o1 [lapatinib]
Summary of the method: as §1

pictilisib = compound: CS(=O)(=O)N1CCN(Cc2cc3nc(-c4cccc5[nH]ncc45)nc(N4CCOCC4)c3s2)CC1 [pictilisib]
Summary of the method: as §1

Measured: log2 fold change

ZCCHC17 (UniProt Q9NP64)
active: filanesib 0.565
inactive: sotrastaurin -0.095 | defactinib 0.149 | [1] 0.033

XYLT2 (UniProt Q9H1B5)
inactive: alvocidib -0.241 | [2] -0.088 | zotarolimus -0.182

ZBTB3 (UniProt Q9H5J0)
inactive: alvocidib -0.14 | Tubastatin A -0.062 | [3] 0.141 | defactinib -0.12 | rucaparib -0.091 | encorafenib -0.095 | [1] 0.114 | [2] 0.021 | zotarolimus 0.039 | idasanutlin -0.364 | alisertib -0.141 | [4] 0.027 | gefitinib -0.087 | [5] 0.026 | lapatinib 0.09 | pictilisib 0.083

ZMYM4 (UniProt Q5VZL5)
inactive: sotrastaurin -0.008 | alvocidib -0.15 | Tubastatin A 0.069 | [3] -0.082 | defactinib -0.054 | rucaparib -0.242 | encorafenib -0.025 | [1] 0.058 | [2] 0.292 | filanesib -0.14 | zotarolimus 0.025 | alisertib -0.03 | gefitinib -0.063 | [5] 0.051 | pictilisib -0.223

ZDHHC2 (UniProt Q9UIJ5)
inactive: sotrastaurin -0.015 | rucaparib -0.117 | encorafenib 0.065 | [2] 0.035 | filanesib -0.155 | alisertib 0.085 | [4] -0.213 | gefitinib 0.035 | [5] 0.114 | lapatinib 0.217 | pictilisib -0.006

ZDHHC4 (UniProt Q9NPG8)
inactive: sotrastaurin 0.014 | [3] 0.015 | defactinib -0.124 | [1] -0.124 | [2] 0.067 | filanesib 0.013 | alisertib -0.03 | [4] -0.031 | [5] -0.138 | lapatinib 0.084

ZFP36L2 (UniProt P47974)
inactive: [3] -0.078 | alisertib -0.035 | [5] 0.169

ZDHHC16 (UniProt Q969W1)
inactive: sotrastaurin 0.029 | [3] 0.039 | defactinib 0.072 | rucaparib -0.245 | encorafenib 0.096 | [1] 0.085 | filanesib 0.084 | gefitinib 0.116

ZBTB7B isoform 2 (UniProt O15156)
inactive: sotrastaurin 0.059 | Tubastatin A 0.147 | defactinib 0.185 | rucaparib -0.021 | encorafenib -0.092 | [1] -0.189 | filanesib 0.272

ZFYVE28 (UniProt Q9HCC9)
inactive: [3] 0.012 | [2] 0.131 | [4] -0.001 | lapatinib 0.095

XYLB (UniProt O75191)
inactive: [3] 0.067

ZNF131 (UniProt P52739)
inactive: sotrastaurin 0.095 | [2] -0.05 | filanesib 0.108

ZBTB34 (UniProt Q8NCN2)
inactive: idasanutlin 0.204

ZNF225 (UniProt Q9UK10)
inactive: idasanutlin -0.197

ZBTB44 (UniProt Q8NCP5)
inactive: idasanutlin 0.085

ZFPM2 (UniProt Q8WW38)
inactive: alvocidib -0.131 | Tubastatin A 0.107 | zotarolimus -0.089 | idasanutlin -0.1 | alisertib -0.116 | [5] 0.159

ZCCHC9 (UniProt Q8N567)
inactive: sotrastaurin 0.243 | Tubastatin A 0.103 | [3] 0.058 | defactinib 0.216 | rucaparib 0.4 | encorafenib 0.002 | [1] 0.081 | [2] -0.05 | zotarolimus -0.044 | idasanutlin 0.139 | alisertib -0.083 | [4] -0.006 | gefitinib -0.062 | [5] -0.121 | lapatinib 0.028 | pictilisib -0.004
active: filanesib 0.527

XPC (UniProt Q01831)
inactive: alvocidib 0.036 | [3] -0.01 | defactinib -0.057 | rucaparib 0.054 | encorafenib -0.19 | [1] 0.003 | [2] -0.107 | zotarolimus 0.051 | idasanutlin -0.017 | [4] -0.226 | lapatinib -0.196

XPA (UniProt P23025)
inactive: Tubastatin A 0.179 | defactinib -0.111 | [1] 0.136 | idasanutlin -0.002 | [4] -0.025 | gefitinib 0.06 | lapatinib -0.065 | pictilisib 0.151

YTHDF1 (UniProt Q9BYJ9)
inactive: [3] 0.118 | [2] 0.186

ZKSCAN3 (UniProt Q9BRR0)
inactive: alvocidib 0.149 | zotarolimus 0

ZDHHC13 (UniProt Q8IUH4)
inactive: sotrastaurin -0.018 | alvocidib -0.039 | [3] 0.077 | rucaparib 0.202 | encorafenib 0.408 | filanesib 0.031 | zotarolimus 0.147 | idasanutlin 0.089

YIPF2 (UniProt Q9BWQ6)
inactive: alvocidib 0.019 | Tubastatin A -0.135 | zotarolimus 0.218 | gefitinib 0.068

ZBTB14 (UniProt O43829)
inactive: alvocidib 0.143 | Tubastatin A 0.016 | [3] 0.077 | zotarolimus -0.015 | alisertib 0.067 | [5] -0.122

ZCRB1 (UniProt Q8TBF4)
inactive: sotrastaurin 0.221 | [3] -0.25 | rucaparib 0.154 | encorafenib -0.01 | filanesib 0.019 | [4] 0.091 | lapatinib 0.019 | pictilisib -0.008

YBX1 (UniProt C9J5V9)
inactive: [2] -0.033 | idasanutlin 0.131

ZFYVE26 (UniProt Q68DK2)
inactive: alvocidib 0.016 | zotarolimus -0.194

ZG16B (UniProt Q96DA0)
inactive: sotrastaurin -0.016 | defactinib 0.344 | rucaparib 0.684 | encorafenib -0.533 | [1] 0.155 | filanesib -0.054 | idasanutlin -0.444 | alisertib 0.387 | [4] 0.56 | [5] 0.226 | lapatinib 1.14

ZFAND1 (UniProt Q8TCF1)
inactive: sotrastaurin -0.083 | Tubastatin A 0.065 | [3] 0.107 | defactinib 0.024 | rucaparib 0.025 | encorafenib 0.011 | [1] -0.289 | [2] -0.247 | filanesib -0.075 | alisertib -0.088 | [4] -0.351 | gefitinib -0.002 | [5] 0.154 | lapatinib 0.23

ZFC3H1 (UniProt O60293)
inactive: sotrastaurin -0.042 | rucaparib -0.302 | encorafenib -0.032 | filanesib -0.091 | idasanutlin -0.007 | alisertib 0.33 | gefitinib -0.167 | [5] 0.194

ZFX isoform 3 (UniProt P17010)
inactive: Tubastatin A -0.094 | defactinib -0.488 | [1] -0.068

YTHDC2 (UniProt Q9H6S0)
inactive: rucaparib 0.419 | encorafenib -0.075 | [2] -0.166 | idasanutlin 0.372 | alisertib -0.107 | [5] -0.279 | pictilisib 0.119

YIPF1 (UniProt Q9Y548)
inactive: sotrastaurin 0.106 | alvocidib 0.096 | Tubastatin A -0.019 | [3] 0 | defactinib 0.088 | rucaparib -0.033 | encorafenib 0.005 | [1] 0.21 | filanesib 0.023 | zotarolimus -0.095 | alisertib -0.065 | [4] 0.036 | gefitinib 0.067 | [5] -0.009 | lapatinib -0.015

ZBTB17 isoform 2 (UniProt Q13105)
inactive: sotrastaurin 0.03 | Tubastatin A 0.049 | [3] -0.041 | filanesib -0.026 | alisertib 0.136 | [5] -0.006

ZBTB10 (UniProt Q96DT7)
inactive: sotrastaurin -0.098 | alvocidib -0.123 | Tubastatin A -0.094 | [3] -0.151 | rucaparib 0.071 | encorafenib -0.003 | filanesib 0.039 | zotarolimus -0.154 | idasanutlin 0.215 | alisertib -0.026 | [4] 0.02 | gefitinib -0.036 | [5] 0.051 | lapatinib 0.049 | pictilisib -0.161

YBEY (UniProt P58557)
inactive: [3] -0.096 | pictilisib 0.308

ZDHHC6 (UniProt Q9H6R6)
inactive: rucaparib 0.176 | encorafenib 0.006 | [4] 0.018 | lapatinib -0.031 | pictilisib -0.044

ZFHX4 isoform 5 (UniProt Q86UP3)
inactive: sotrastaurin -0.048 | Tubastatin A 0.155 | [3] 0.077 | [2] 0.379 | filanesib 0.057 | gefitinib 0.008

2 records drawn at random from the list so far:
ZBTB17 isoform 2 (UniProt Q13105)
inactive: sotrastaurin 0.03 | Tubastatin A 0.049 | [3] -0.041 | filanesib -0.026 | alisertib 0.136 | [5] -0.006

ZFHX4 isoform 5 (UniProt Q86UP3)
inactive: sotrastaurin -0.048 | Tubastatin A 0.155 | [3] 0.077 | [2] 0.379 | filanesib 0.057 | gefitinib 0.008

(listing goes on)

ZKSCAN4 (UniProt Q969J2)
inactive: alvocidib 0.171 | Tubastatin A -0.002 | defactinib 0.196 | [1] -0.332 | zotarolimus 0.021 | idasanutlin 0.295
